Data published in patent publication US6096864A, “Peptides for use in wound treatment” (Johnson & Johnson Medical, Ltd., priority 1998, dated 2000).
Part of at least one peptide drawing is inferred or uncertain, most often the ends. Where a SMILES comes first, the peptide text is derived from it. [ ]: non-standard residue; d: D form. Hyp = O=C(O)[C@@H]1C[C@@H](O)CN1

Test system: fibroblasts
Experiment: fibroblast chemotaxis assay (number of migrating cells)
Type: cell-based
Settings: synthetic peptide

**Q.** For `C[C@H](NC(=O)CNC(=O)[C@H](C)NC(=O)[C@@H]1CCCN1C(=O)CNC(=O)[C@@H]1C[C@@H](O)CN1C(=O)[C@H](CCC(N)=O)NC(=O)CNC(=O)[C@@H]1C[C@@H](O)CN1C(=O)[C@H](CCC(=O)O)NC(=O)CNC(=O)[C@@H]1C[C@@H](O)CN1C(=O)[C@H](CCC(=O)O)NC(=O)CNC(=O)[C@@H]1C[C@@H](O)CN1C(=O)[C@@H]1CCCN1C(=O)CN)C(=O)N[C@@H](CCCNC(=N)N)C(=O)NCC(=O)N1CCC[C@H]1C(=O)N[C@@H](C)C(=O)NCC(=O)O` (H-GP[Hyp]GE[Hyp]GE[Hyp]GQ[Hyp]GPAGARGPAG-OH), which “peptide concentration of maximum fibroblast chemotaxis activity” value is on record?
**A.** Its value is “about 0.1 mg/ml”.
